From the supplement of paper PMC5949888
Most values lie at the floor of the assay. Slopes are relative: functional sequences can read slightly below zero.

Tested on: Saccharomyces cerevisiae PS128 hsf1 delta, HSF1(1-493) fusion
Experiment: growth estimate (transactivation domain function in HSF1 fusion, heat-shock survival) (a.u. (slope of normalised read count over time)); higher = stronger growth at 37°C, i.e. more transactivation activity
Settings: library: random library

| Substance | growth estimate |
| --- | --- |
| QRRPGNYVRLSQSS | -0.154 |
| QRRRKKWYVHVSLIASQTHE | < -0.25 |
| QRSDIGVVFPVCSFYLGWIN | < -0.25 |
| QRSRFTVRLGSCFGLPCTCD | < -0.25 |
| QRSSININI | < -0.253 |
| QRTERMVLLWLDF | < -0.25 |
| QRTTKFLRIQGVSSGSSCLN | < -0.25 |
| QRVGPRF | < -0.25 |
| QRVRALELRMSILLLRTNLR | < -0.25 |
| QRYILVSAPSRLSM | < -0.25 |
| QSAAGGRSWW | < -0.25 |
| QSARSTPVPARDECKQVFQN | < -0.25 |
| QSATVSTKSRFALGTLR | < -0.25 |
| QSCSFFMRA | < -0.25 |
| QSCVFRVVSVQKASVCYPTV | < -0.25 |
| QSDLSDGR | < -0.25 |
| QSEKEPR | < -0.25 |
| QSFSTIFELYACTLWKGSLR | < -0.25 |
| QSFVVLRII | < -0.25 |
| QSGGPQTRGFSNYNFSMIL | < -0.25 |
| QSGSAKA | < -0.25 |
| QSGYAGFFFQSGLCFLFRIE | -0.235 |
| QSKACVRRELGAVRIGLFHA | < -0.25 |
| QSKGKLHHLLSRGVRVEYVA | < -0.25 |
| QSLDPLTCYCNLTESARV | < -0.25 |
| QSLQCRLERILVFLNHKVSC | < -0.25 |

| Substance | growth estimate |
| --- | --- |
| QSNSNFGNWTVGSGCSSWSL | < -0.25 |
| QSNSSSHHPS | < -0.25 |
| QSPTEA | < -0.25 |
| QSPVVRQIHKCVCVYRARVT | < -0.25 |
| QSQALPKTVGP | < -0.25 |
| QSQR | < -0.25 |
| QSQRGQSNRVSKLEEVVASG | < -0.25 |
| QSRWSNPTPLKTPLNVFSLR | < -0.25 |
| QSRYVPGIS | < -0.25 |
| QSSFQKLAPLLLGSFDGHSA | < -0.25 |
| QSSNGGLGPRHIVSRPTLGD | < -0.25 |
| QSSVVRGTCTDYW | < -0.25 |
| QSSYNWARGGKLTARLVYC | < -0.25 |
| QSTIRMQLSVIRGE | < -0.25 |
| QSTSLH | -0.245 |
| QSVRSCMK | < -0.25 |
| QSYITPT | < -0.25 |
| QSYPSSQLFIQFAIK | < -0.25 |
| QTADIIAALMQS | < -0.25 |
| QTCIVFVLALSTHTPPPRRG | < -0.25 |
| QTEHFQVR | < -0.25 |
| QTGIAH | < -0.25 |
| QTGVRSI | < -0.25 |
| QTHDPVCS | < -0.25 |
| QTHPGGFTKLIQALTLCRSS | < -0.25 |
| QTIYKGSISNRQLAPFPASD | < -0.25 |

Rewritten tab-delimited: part of the list above.
Substance	growth estimate
QSTIRMQLSVIRGE	< -0.25
QTHPGGFTKLIQALTLCRSS	< -0.25

The listing continues:

| Substance | growth estimate |
| --- | --- |
| QTKRYVTLLGWSLAEA | < -0.25 |
| QTLRHM | < -0.25 |
| QTSGAVRS | < -0.25 |
| QTSLS | < -0.25 |
| QTTLQWSGLEGLTCLRHSAR | < -0.25 |
| QTVTS | < -0.25 |
| QVAGGNLGPAVQTSRRHSST | < -0.25 |
| QVCRTNLVIPFDA | < -0.25 |
| QVDGRGRGLRLGATVRRSDG | < -0.25 |
| QVEG | < -0.25 |
| QVEKCLVQQFFWNR | < -0.25 |
| QVFLTLT | < -0.25 |
| QVGRIEARLVFIHA | < -0.25 |
| QVGTNLQPCYNFIDLPLQVH | < -0.25 |
| QVKSVQVSSVSN | < -0.25 |
| QVLKWR | < -0.25 |
| QVMRSKRY | < -0.25 |
| QVNHRFPKRGLMVWL | < -0.25 |
| QVPLEKADKNYVGGHTLRGT | < -0.25 |
| QVRLV | < -0.25 |
| QVRRTPT | < -0.25 |
| QVRSMFGSRGSPS | < -0.25 |
| QVRVEETTKFKECKWPGFGA | < -0.25 |
| QVSNGVHFFCSGVPCEYQPE | < -0.25 |
| QVSSDIQDPPPPRS | < -0.25 |
| QVSVTWSFGCLLEFADFKVH | -0.157 |

| Substance | growth estimate |
| --- | --- |
| QVTCLGW | < -0.25 |
| QVTIRRFGPGPMGQYMDR | < -0.25 |
| QVTKPVMQVVWPRTGQMLFT | < -0.25 |
| QVTLFEWYLAVPIAPSLTEL | < -0.25 |
| QVTTYLFSDP | < -0.25 |
| QVVTGKGVESQRV | < -0.25 |
| QVVVA | < -0.25 |
| QVY | < -0.25 |
| QVYRSGGLTTDRRFVMRRWM | < -0.25 |
| QWARGCIARVRSLVQGCGGH | < -0.25 |
| QWRNGDSAAQEPWRHWRVGS | < -0.25 |
| QWVLNYWRQGTLLFGKSGQG | < -0.25 |
| QYARRQNGSEPSLSVGPTTR | < -0.25 |
| QYFGQSDLPQHTWIVFF | < -0.25 |
| QYFTGGRWQC | < -0.25 |
| QYGNSTILNKGQHSKYVISP | -0.245 |
| QYGQFCG | < -0.25 |
| QYGSIYLFKESLA | < -0.25 |
| QYKEHPSTLAGPTDYTGRPV | 0.108 |
| QYLDQFEFRSGVIVLMHRDG | < -0.25 |
| QYMWELIRKPEADASGPGA | -0.218 |
| QYPV | < -0.25 |
| QYRASRVFKEHQTAVWGRPF | < -0.25 |
| QYTIENG | < -0.25 |
| QYWNTSRVADFGRSTVVVPT | -0.184 |
| RAALMHVRQGIYADCRGAIE | < -0.25 |

| Substance | growth estimate |
| --- | --- |
| RADCYPEPTL | < -0.25 |
| RAECNSLLPHR | < -0.25 |
| RAF | < -0.25 |
| RAFCAANMATAQLGSELRHS | < -0.25 |
| RAFCAQGHGPPGWRLCCNLV | < -0.25 |
| RAFLLMGTTQCQNA | < -0.25 |
| RAG | < -0.25 |
| RAGGKMGGTVARRLSVY | < -0.25 |
| RAGRKQRLWPVQNH | < -0.25 |
| RAGTLRFGGYRL | < -0.25 |
| RAGVHVPNVLQRRSVSFYRV | < -0.25 |
| RAI | < -0.25 |
| RAIQ | < -0.25 |
| RAIRASM | < -0.25 |
| RAIS | < -0.25 |
| RALEPTKPAGLSSDDVDS | < -0.25 |
| RALQYRVRYILAA | < -0.25 |
| RALSAFPAYPIHVSLSKVKE | < -0.25 |
| RALSLEQNVYRTATQISFPT | < -0.25 |
| RALSWGPEQRTHQYVLPRIG | < -0.25 |
| RALSYYHSYALRTTNDTSKR | < -0.25 |
| RAPEAWVRYRAVRIEESIRD | < -0.25 |
| RAPMTAPPVNPGRSTSPILR | < -0.25 |
| RAQGIAGAVRECARF | < -0.25 |
| RAQPVQCLDWFQTNVTGTKY | < -0.25 |
| RAQQQCAWCVYERKIICKAR | < -0.25 |

| Substance | growth estimate |
| --- | --- |
| RARGHTSSSL | < -0.25 |
| RARVQPDGSAVAEVYRFWRS | < -0.25 |
| RASEA | < -0.25 |
| RASFYQTVCTRIG | < -0.25 |
| RASHAGPKRCVISKHELVRS | < -0.25 |
| RASQLTSRDTETCVALDPHW | < -0.25 |
| RASSISFVCEAA | < -0.25 |
| RASSSCNVRNSCIGR | < -0.25 |
| RASTLGGCLNAMVTADVLLC | < -0.25 |
| RASTREQAAWPWCSSCSAAL | < -0.25 |
| RATSSAVCCCALPDGEKHPG | -0.245 |
| RATSVQSFYQSSRL | < -0.25 |
| RAVSPTTASLEGTPA | < -0.25 |
| RAVWG | < -0.25 |
| RAVYISGWLCLGTGSKGVTQ | < -0.25 |
| RAWNRRLSDVRRLK | < -0.25 |
| RAWVLDGLRIRTAWQLGEAS | < -0.25 |
| RAWWSLNHVGRVKRPFGQIL | < -0.25 |
| RCAGMILKCS | < -0.25 |
| RCDDIPTGNLTTRVVALGAS | < -0.25 |
| RCDPLRGDAPVEIESEKNSP | < -0.25 |
| RCDSAPPIPVWFLSGRIRSM | < -0.25 |
| RCEEP | < -0.25 |
| RCERRSGLFAPWGLWRRSHP | < -0.25 |
| RCFG | < -0.25 |
| RCGVQYQIIGT | < -0.25 |

Quoted at random: four records from the list

| Substance | growth estimate |
| --- | --- |
| RASSISFVCEAA | < -0.25 |
| RASQLTSRDTETCVALDPHW | < -0.25 |
| RCERRSGLFAPWGLWRRSHP | < -0.25 |
| RCFG | < -0.25 |

Carrying on.

| Substance | growth estimate |
| --- | --- |
| RCLIAFSR | < -0.25 |
| RCLLIDKSH | < -0.25 |
| RCLSDK | < -0.25 |
| RCLV | < -0.25 |
| RCNSLLKGLCPSQRTGRLSL | < -0.25 |
| RCNSNCSWGANTSAPVASVT | < -0.25 |
| RCPDQVSYSWEQLVRPMNPL | < -0.25 |
| RCQENWAAPLPLR | -0.245 |
| RCQGNRHSLP | < -0.25 |
| RCQHIKEGRMGRLIRESDMF | < -0.25 |
| RCQIQRRVLPSQFSALPVGE | < -0.25 |
| RCRYGVERSGQIEQMLCRSV | < -0.25 |
| RCRYTNEYSS | < -0.25 |
| RCSGAKIKEDRRVLGDFVCV | < -0.25 |
| RCSGR | < -0.25 |
| RCSRKYLKQRSN | < -0.25 |
| RCTGSGQVWG | < -0.25 |
| RCV | < -0.25 |
| RCVLSAK | < -0.25 |
| RCVR | < -0.25 |
| RCVSNSVCEFENGAVCDPAG | < -0.25 |
| RCVTESQ | < -0.25 |
| RCWE | < -0.25 |
| RCWGQDMSLLSISVHVWVYT | < -0.25 |
| RDAALTSGQEPGDACIMLLS | < -0.25 |
| RDATIASPDGENG | < -0.25 |

| Substance | growth estimate |
| --- | --- |
| RDCAGYGPTGMSLRVLMRDR | < -0.25 |
| RDDTKRRA | < -0.25 |
| RDEDPSRI | < -0.25 |
| RDEPDLNVIRKFFRMSLGLF | < -0.25 |
| RDG | < -0.25 |
| RDGKGSGLTAW | < -0.25 |
| RDGRLPWYMSTPPATKY | < -0.25 |
| RDHRGAEGALAPGKGTNMDG | < -0.25 |
| RDIEGPFRQEVEAGGCA | < -0.25 |
| RDKEERCTASTLNIISAESR | < -0.25 |
| RDKPMMV | < -0.25 |
| RDKVCNFSIVRIVPSEYGKA | -0.246 |
| RDKYFHNYMRG | < -0.25 |
| RDL | < -0.25 |
| RDLLERQRGMARYVM | < -0.25 |
| RDNWNR | < -0.25 |
| RDPLRPLGAMTRAALNVNRT | < -0.25 |
| RDPRNLRHSIRPTGGTGTSS | < -0.25 |
| RDPSDGARSLRAKDAHITVI | < -0.25 |
| RDPTKHGYRKLASDVQAGSL | < -0.25 |

As a short view, part of the list above.

| Substance | growth estimate |
| --- | --- |
| RDPLRPLGAMTRAALNVNRT | < -0.25 |
| RDPRNLRHSIRPTGGTGTSS | < -0.25 |
| RDPSDGARSLRAKDAHITVI | < -0.25 |
| RDPTKHGYRKLASDVQAGSL | < -0.25 |
